# PubChem BioAssay (EPA / NIEHS)
# Sequences of proteins named here, by UniProt entry; tags and fusion partners are left off. A change or cut given only in a name is not applied to a line headed by its entry.
# UniProt Q9UNQ0: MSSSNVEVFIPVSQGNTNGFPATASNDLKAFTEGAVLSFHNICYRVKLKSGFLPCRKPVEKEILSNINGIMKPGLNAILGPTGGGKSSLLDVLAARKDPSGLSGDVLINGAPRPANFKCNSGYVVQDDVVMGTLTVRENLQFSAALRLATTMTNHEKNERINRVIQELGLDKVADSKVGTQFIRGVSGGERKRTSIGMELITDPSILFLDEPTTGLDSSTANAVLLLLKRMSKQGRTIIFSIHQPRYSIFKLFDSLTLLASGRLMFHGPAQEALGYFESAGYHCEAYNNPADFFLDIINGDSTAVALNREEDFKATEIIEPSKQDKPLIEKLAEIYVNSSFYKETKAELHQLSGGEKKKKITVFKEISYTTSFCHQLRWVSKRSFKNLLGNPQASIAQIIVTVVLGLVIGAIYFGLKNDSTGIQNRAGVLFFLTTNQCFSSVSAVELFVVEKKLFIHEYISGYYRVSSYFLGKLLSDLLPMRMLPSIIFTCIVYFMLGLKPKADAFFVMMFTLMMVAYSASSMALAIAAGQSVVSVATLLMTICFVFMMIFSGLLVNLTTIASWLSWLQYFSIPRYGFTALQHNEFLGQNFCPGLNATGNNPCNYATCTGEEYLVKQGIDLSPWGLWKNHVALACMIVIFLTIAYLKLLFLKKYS
# Inconclusive means that the source gave no clear call. Such entries were picked first, then a sample of the others. Where the call is inconclusive, the potency comes from a doubtful curve fit. Calls of active or inactive are those of the source. Rule for the calls: active = hit-call score of the fitted dose curve at least 0.9, where 1 is the maximum; inconclusive = response in the unintended direction; inactive = score below 0.9.
# How the values were obtained:
# [1] = Tanguay_ZF_120hpf_CFIN_legacy: (Legacy) Oregon State University Tanguay Lab 120 Hour Post-fertilization zebrafish Assay for Caudal Fin Malformation (AID 2283649)
# How it was run: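 Binary brightfield scoring of caudal fin defects at 120 hpf after static, light-shielded exposure at 28C from 6 hpf. Tropical 5D embryos, chorion removed with pronase at 4 hpf, final DMSO 0.64%.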
# [2] = Tanguay_ZF_120hpf_CIRC_legacy: (Legacy) Oregon State University Tanguay Lab 120 Hour Post-fertilization zebrafish Assay for Circulatory Malformation (AID 2283651)
# How it was run: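 Using wild-type Tropical 5D zebrafish, we exposed dechorionated embryos from 6 to 120 hpf in embryo medium with 0.64% DMSO. Circulatory defects were scored as present or absent; 5uM trimethyltin chloride served as positive control.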
# [3] = Tanguay_ZF_120hpf_TRUN_legacy: (Legacy) Oregon State University Tanguay Lab 120 Hour Post-fertilization zebrafish Assay for Truncated Body (AID 2283655)
# How it was run: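 Binary presence/absence of truncated body is recorded at 120 hpf by brightfield, with non-mortality endpoints skipped after death. Exposure is static from 6 hpf in sealed dark plates at 28C, using dechorionated wild-type zebrafish, 0.64% DMSO.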
# [4] = Tanguay_ZF_120hpf_TR_legacy: (Legacy) Oregon State University Tanguay Lab 120 Hour Post-fertilization zebrafish Assay for Touch Response (AID 2283667)
# How it was run: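 5D WT embryos; static exposure to 120 hpf, 28C, sealed/dark; DMSO 0.64% v/v final. TR scored present/absent; dead embryos excluded. Pos ctrl 5uM trimethyltin chloride.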
# [5] = Tanguay_ZF_120hpf_NC_legacy: (Legacy) Oregon State University Tanguay Lab 120 Hour Post-fertilization zebrafish Assay for Notochord and Tail Malformation (AID 2283656)
# How it was run: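 Dechorionated 5D zebrafish, 1/well from 6 hpf; static exposure to 120 hpf, 28C, sealed, dark; final DMSO 0.64% v/v. NC scored binary (present/absent); dead embryos not scored. Fit vs DMSO baseline, gain direction.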
# [6] = Tanguay_ZF_120hpf_PIG_legacy: (Legacy) Oregon State University Tanguay Lab 120 Hour Post-fertilization zebrafish Assay for Pigmentation Malformation (AID 2283650)
# How it was run: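 Pronase dechorionation at 4 hpf; embryos plated at 6 hpf, one per well; static exposure, sealed and foil-covered, 28C, to 120 hpf; pigmentation read by brightfield, binary; DMSO 0.64% baseline, 5uM trimethyltin chloride positive control.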
# [7] = read-out: ABC Transporter (ABCB1), ABCB1 (gene 5243); test: CLD_ABCB1_6hr: CellzDirect (CLD) Gene Expression Assay for ABC Transporter (ABCB1) at 6 hours (AID 2283659)
# How it was run: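 Primary human hepatocytes (two donor preparations) dosed daily for two days with chemicals at multiple concentrations, 0.2% DMSO vehicle; harvested 6 h post-dose. ABCB1 mRNA induction quantified by qNPA chemiluminescence; gain-of-signal fitted versus DMSO.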
# [8] = read-out: Broad substrate specificity ATP-binding cassette transporter ABCG2 (Homo sapiens) (UniProt Q9UNQ0); test: CLD_ABCG2_6hr: CellzDirect (CLD) Gene Expression Assay for ABC Transporter (ABCG2) at 6 hours (AID 2283660)
# How it was run: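 Primary human hepatocytes dosed daily with chemicals at multiple concentrations (0.2% DMSO vehicle), harvested 6 h after dosing. ABCG2 mRNA induction read by quantitative nuclease protection assay (qNPA) chemiluminescence; gain of signal fitted against DMSO baseline.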
# [9] = read-out: sulfotransferase (SULT2A), SULT2A1 (gene 6822); test: CLD_SULT2A_6hr: CellzDirect (CLD) Gene Expression Assay for sulfotransferase (SULT2A) at 6 hours (AID 2283669);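 note: hits raise transcript level above the DMSO vehicle baseline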
# How it was run: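 Primary human hepatocytes from two donor preparations were dosed daily with chemicals or 0.2% DMSO and harvested at 6 h. Transcript induction read by qNPA chemiluminescence, fitted for gain of signal relative to DMSO; morphology-based cytotoxicity annotated.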
# [10] = Tanguay_ZF_120hpf_SWIM_legacy: (Legacy) Oregon State University Tanguay Lab 120 Hour Post-fertilization zebrafish Assay for Swim Bladder Malformation (AID 2283654);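 note: swim bladder malformation in each larva scored yes or no under brightfield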
# How it was run: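 Embryos lacking chorions were exposed individually and statically to test chemical from 6 to 120 hpf at 28C, with 0.64% DMSO as vehicle. At 120 hpf, swim bladder malformation was recorded as present or absent by brightfield microscopy.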
# [11] = CCTE_Simmons_CellTiterGLO_HEK293T: Viability Assessment in CCTE's Assays for Thyroperoxidase (TPO) Inhibition, Simmons Lab (AID 2283665);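 for AC50: cells exposed to compound for 24 h before readout; actives reduce ATP signal below DMSO vehicle meaning cytotoxicity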
# How it was run: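 Cytotoxicity counter-screen: human HEK293T cells in low-serum (1% FBS) medium receive test chemical, 5 nM to 87.5 uM final, for 24 h; ATP is quantified by luciferase luminescence.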
# [12] = read-out: xenobiotic metabolism (CYP2C9), CYP2C9 (gene 1559); test: CLD_CYP2C9_6hr: CellzDirect (CLD) Gene Expression Assay for xenobiotic metabolism (CYP2C9) at 6 hours (AID 2283664)
# How it was run: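 Primary human hepatocytes dosed daily with test chemicals at multiple concentrations; harvested at 6 h. CYP2C9 mRNA induction measured by qNPA chemiluminescence. Gain of signal fitted against 0.2% DMSO vehicle; cytotoxicity annotated from phase-contrast morphology.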
# [13] = read-out: organic anion transporter (SLCO1B1), SLCO1B1 (gene 10599); test: CLD_SLCO1B1_6hr: CellzDirect (CLD) Gene Expression Assay for organic anion transporter (SLCO1B1) at 6 hours (AID 2283668);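 note: active means mRNA induction above DMSO baseline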
# How it was run: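 Primary human hepatocytes dosed daily with test chemicals (multiple concentrations) in 0.2% DMSO vehicle; harvested at 6 h. SLCO1B1 mRNA quantified by qNPA chemiluminescence, fitted as gain-of-signal versus DMSO; cytotoxicity from phase-contrast morphology flagged alongside.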
# [14] = read-out: alkyl and aryl transferase (GSTA2), GSTA2 (gene 2939); test: CLD_GSTA2_6hr: CellzDirect (CLD) Gene Expression Assay for alkyl and aryl transferase (GSTA2) at 6 hours (AID 2283666)
# How it was run: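 Primary human hepatocytes from two donor preparations were dosed daily with fresh compound at multiple concentrations, 0.2% DMSO vehicle. GSTA2 mRNA was measured at 6 hours by qNPA chemiluminescence; induction fitted relative to DMSO, with cytotoxicity flagged morphologically.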
# [15] = read-out: xenobiotic metabolism (CYP1A2), CYP1A2 (gene 1544); test: CLD_CYP1A2_6hr: CellzDirect (CLD) Gene Expression Assay for xenobiotic metabolism (CYP1A2) at 6 hours (AID 2283663);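 note: potency is for induction meaning a rise in mRNA above DMSO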
# How it was run: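 Primary human hepatocytes from two donor preparations, dosed daily with multiple concentrations in 0.2% DMSO and harvested at 6 h. CYP1A2 mRNA induction measured by chemiluminescent qNPA, gain of signal fitted against DMSO; cytotoxicity flagged morphologically.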
smiles,measurement,setting,value
CC(C)CC(C)O (stereo not drawn),AC50,[1],inconclusive: 109 µM
same,AC50,[2],inconclusive: 48.1 µM
same,AC50,[3],inconclusive: 5.65 µM
same,AC50,[4],inconclusive: 3.72 µM
CCCC[C@H]1CN(CC2CCOCC2)C(=O)OC12CCN(C1(C)CCN(C(=O)c3c(C)ncnc3C)CC1)CC2,outcome,[2],inactive
CC1(C)C(=O)N(Br)C(=O)N1Br,outcome,[2],inactive
same,AC50,[3],inconclusive: 142 µM
CCCCc1nc2cccnc2n1Cc1ccc(-c2ccccc2-c2nnn[nH]2)cc1,outcome,[2],inactive
same,AC50,[5],inconclusive: 108 µM
same,AC50,[4],inconclusive: 44.2 µM
CC(C)(C)c1ccccc1,AC50,[6],inconclusive: 5.27 µM
same,outcome,[5],inactive
COC(=O)c1ccccc1S(=O)(=O)NC(=O)Nc1nc(OC(F)F)cc(OC(F)F)n1,AC50,[7],inconclusive: 20 µM
same,AC50,[8],inconclusive: 0.157 µM
same,AC50,[9],inconclusive: 1.89 µM
CCCCN1C(=O)[C@@H]([C@H](O)C2CCCCC2)NC(=O)C12CCN(Cc1ccc(Oc3ccc(C(=O)O)cc3)cc1)CC2,AC50,[10],inconclusive: 28.5 µM
same,outcome,[5],inactive
O=c1cc[nH]cc1,AC50,[11],inconclusive: 0.0384 µM
CCCCCCC(=O)O,outcome,[10],inactive
same,AC50,[3],inconclusive: 113 µM
CN1C(=O)CC[C@H]1c1cccnc1,outcome,[5],inactive
same,outcome,[4],inactive
COC(=O)c1c(Cl)nn(C)c1S(=O)(=O)NC(=O)Nc1nc(OC)cc(OC)n1,AC50,[7],inconclusive: 20 µM
same,AC50,[12],inconclusive: 0.0406 µM
same,AC50,[13],inconclusive: 0.58 µM
same,outcome,[9],inactive
Oc1cccc2ccccc12,outcome,[11],inactive
C=CCc1cc(S(=O)(=O)c2ccc(O)c(CC=C)c2)ccc1O,AC50,[5],inconclusive: 70.4 µM
COC(=O)c1ccc(I)cc1S(=O)(=O)NC(=O)Nc1nc(C)nc(OC)n1,AC50,[12],inconclusive: 0.0948 µM
same,AC50,[4],inconclusive: 185 µM
same,outcome,[13],inactive
CC(O)CN(CCN(CC(C)O)CC(C)O)CC(C)O (stereo not drawn),AC50,[5],inconclusive: 1.11 µM
CCNc1nc(N)nc(Cl)n1,AC50,[12],inconclusive: 20 µM
same,outcome,[14],inactive
same,AC50,[13],inconclusive: 20 µM
CC(=O)Nc1cc(S(=O)(=O)O)cc2cc(S(=O)(=O)O)c(N=Nc3ccccc3)c(O)c12,AC50,[11],active: 17.3 µM
C=CCc1ccc(O)c(OC)c1,AC50,[5],inconclusive: 32.9 µM
CN(C)C(=O)Nc1ccccc1,AC50,[11],inconclusive: 53.8 µM
CC(C)CCCCCCCOC(=O)CCCCC(=O)OCCCCCCCC(C)C,outcome,[5],inactive
CCc1ccc(O)cc1,AC50,[11],inconclusive: 54.1 µM
CC(C)(C)c1ccc(O)c(C(C)(C)C)c1,outcome,[10],inactive
CC(C)c1ccc(C(=O)N=C(N)N)cc1S(C)(=O)=O,AC50,[5],inconclusive: 1.46 µM
CC(C)CCCCCCCCCCCCCCC(=O)O,AC50,[11],inconclusive: 13.3 µM
CC(C)(C)c1cc(Cc2cc(C(C)(C)C)c(O)c(C(C)(C)C)c2)cc(C(C)(C)C)c1O,AC50,[11],inconclusive: 9.11 µM
Nc1ccc(S(=O)(=O)Nc2cnc3ccccc3n2)cc1,AC50,[11],inconclusive: 10.7 µM
COc1ccc2c(c1)c(CC(=O)O)c(C)n2C(=O)c1ccc(Cl)cc1,AC50,[4],inconclusive: 2.9 µM
COC(=O)c1ccc(CNS(C)(=O)=O)cc1S(=O)(=O)NC(=O)Nc1nc(OC)cc(OC)n1,AC50,[8],inconclusive: 20 µM
same,AC50,[15],inconclusive: 0.0155 µM
same,AC50,[12],inconclusive: 3.97 µM
same,AC50,[14],inconclusive: 20 µM
same,outcome,[13],inactive
same,outcome,[9],inactive
CCCc1ccccc1,AC50,[3],inconclusive: 201 µM
CC(=O)C(C)=CC1C(C)=CCCC1(C)C (stereo not drawn),AC50,[10],inconclusive: 181 µM
same,outcome,[3],inactive
same,AC50,[4],inconclusive: 202 µM
CCN(CC)C(=O)c1cccc(C)c1,AC50,[12],inconclusive: 20 µM
same,outcome,[13],inactive
CCc1cc(C(C)(C)C)c(O)c(C(C)(C)C)c1,AC50,[11],active: 24.3 µM
CCCCC(CC)COC(=O)CC(C(=O)OCC(CC)CCCC)S(=O)(=O)O (stereo not drawn),outcome,[10],inactive
Cc1cc(C)nc(NS(=O)(=O)c2ccc(N)cc2)n1,AC50,[11],inconclusive: 0.0105 µM
O=C1OC[C@H](Cc2cccc(O)c2)[C@H]1Cc1cccc(O)c1,AC50,[11],inconclusive: 27.4 µM
COCCOCCOC,outcome,[5],inactive
Cc1nc(-c2ccccn2)ncc1C(=O)Nn1cc(C)c2cc(F)ccc21,AC50,[3],inconclusive: 128 µM
same,outcome,[5],inactive
O=C(O)CCCCC(=O)O,outcome,[3],inactive
CCc1occc(=O)c1O,AC50,[11],inconclusive: 53.8 µM
CC(=O)c1ccc2c(c1)[C@H](NC(=O)c1ccc(F)cc1)[C@@H](O)C(C)(C)O2,outcome,[3],inactive
same,AC50,[5],inconclusive: 59 µM
CCCCN(CCCC)CCCC,AC50,[10],inconclusive: 4.26 µM
O=C1OC(c2ccc(O)cc2)(c2ccc(O)cc2)c2ccccc21,outcome,[4],inactive
CCOc1ccccc1O,AC50,[11],inconclusive: 4.74 µM
Cc1[nH]cnc1C[C@H]1CCc2c(C)c3ccccc3n2C1=O,AC50,[3],inconclusive: 154 µM

# For reference, some entries already given.
smiles,measurement,setting,value
Oc1cccc2ccccc12,outcome,[11],inactive
C=CCc1cc(S(=O)(=O)c2ccc(O)c(CC=C)c2)ccc1O,AC50,[5],inconclusive: 70.4 µM
COC(=O)c1ccc(I)cc1S(=O)(=O)NC(=O)Nc1nc(C)nc(OC)n1,AC50,[12],inconclusive: 0.0948 µM
